Experimental data reported in PubChem BioAssay AID488850 (National Center for Advancing Translational Sciences (NCATS), 2010).
The shares of active, inactive and inconclusive entries below differ from those in the screen. Potencies of inconclusive entries are doubtful fits and often do not repeat. Active and inactive are the calls of the source. The call rests on the fitted dose curve; in most records, active means well fitted activation curve with a large enough effect; inconclusive means small, poorly fitted or top-dose-only effect; inactive means flat fitted curve, though single readings scatter.

Sequences of proteins named here, by UniProt entry; tags and fusion partners are left off.
UniProt P04062, whole entry N409S: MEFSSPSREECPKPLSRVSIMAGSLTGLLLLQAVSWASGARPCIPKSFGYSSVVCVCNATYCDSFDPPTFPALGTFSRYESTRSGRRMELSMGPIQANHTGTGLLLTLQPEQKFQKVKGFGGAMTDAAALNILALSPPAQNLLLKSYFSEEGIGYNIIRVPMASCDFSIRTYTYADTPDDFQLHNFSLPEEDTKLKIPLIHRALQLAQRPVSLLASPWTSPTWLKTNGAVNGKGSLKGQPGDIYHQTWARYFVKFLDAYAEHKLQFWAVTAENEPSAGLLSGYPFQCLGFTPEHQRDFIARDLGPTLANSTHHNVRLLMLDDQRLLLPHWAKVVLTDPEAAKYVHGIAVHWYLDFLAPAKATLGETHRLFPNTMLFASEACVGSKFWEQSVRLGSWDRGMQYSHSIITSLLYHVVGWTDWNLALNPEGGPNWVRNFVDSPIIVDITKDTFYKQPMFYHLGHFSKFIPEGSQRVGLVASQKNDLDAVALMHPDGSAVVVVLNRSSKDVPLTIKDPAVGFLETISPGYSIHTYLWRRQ

Biological target: Lysosomal acid glucosylceramidase (Homo sapiens) (UniProt P04062)
Assay: qHTS Assay for Inhibitors and Activators of N370S glucocerebrosidase as a Potential Chaperone Treatment of Gaucher Disease: Purified N370S Glucocerebrosidase Confirmation for Probe SAR
Details: purified N370S GC, 4MU-glucoside fluorescence, 40 min; series mostly up to 57.5 µM
From the text: NIH Chemical Genomics Center [NCGC] NIH Molecular Libraries Probe Production Centers Network [MLPCN] MLPCN Grant: MH086442-01 Assay Submitter (PI): Wei Zheng Glucocerebrosidase (GC) catalyzes the hydrolysis of beta-glucocerebroside to glucose and ceramide in lysosomes. Mutations in the glucocerebrosidase gene result in Gaucher disease, an autosomal recessive lysosomal storage disorder. Many of the mutations encountered in patients with Gaucher disease are missense alterations that may cause misfolding, decreased stability and/or mistrafficking of this lysosomal protein. […] These inhibitors include iminosugar analogs and three non-iminosugar inhibitors identified from a previous HTS of 62,000 compounds with the wild type recombinant enzyme. However, the enhancement of enzyme activity by the chaperone action of an enzyme inhibitor must be balanced against the direct inhibition of the enzyme. An enzyme activator could also function as a chaperone by binding to the enzyme and helping to correct its misfolding and mistrafficking. While activators for GC have not yet been identified, they may have better therapeutic potential than inhibitors. Therefore the discovery and development of chemical activators may provide a new strategy for the chaperone therapy. We have optimized a new assay using N370S mutant GC derived from the spleen of a Gaucher patient. […] In addition, the MLPCN compound library has expanded, which increases the chance of finding new and better probes. This assay characterizes compound activity using purified mutant enzyme instead of tissue homogenate. Compound activity differences may be due to the absence of endogenous cofactors found in tissue homogenate.
NCGC Assay Protocol Summary: This is a fluorogenic enzyme assay with 4-methylumbelliferyl-beta-D-glucopyranoside as the substrate and purified N370S glucocerebrosidase as the enzyme preparation. Upon the hydrolysis of this fluorogenic substrate, the resulting product, […] which can be detected by a standard fluorescence plate reader. Data were normalized to the controls for basal activity (without enzyme) and 100% activity (with enzyme). The AC50 values were determined from concentration-response data modeled with the standard Hill equation. Assay buffer: 50 mM citric acid (titrated with potassium phosphate to pH 5.0), 100 mM potassium chloride, 10 mM sodium chloride, 1 mM magnesium chloride, 0.01% Tween-20. 1536-well assay protocol: (1) Add 2 ul/well of glucocerebrosidase enzyme solution (5 nM final) (2) Add 23 nL compounds in DMSO solution. The final titration was 0.5 nM to 58 uM. (3) Add 2 ul of substrate (1 mM final) (4) Incubate at 37C for 40 min. (5) Add 2 ul stop solution (1M NaOH and 1M Glycine mixture, pH 10) (6) Detect the assay plate in a ViewLux plate reader (PerkinElmer) with Ex=365 nm and Em=440nm. Keywords: Glucocerebrosidase, beta-glucosidase, Gaucher Disease, pharmacological chaperone, chaperone therapy, high throughput screening, glucocerebrosidase inhibitor, MLSMR, MLSCN, NIH Roadmap, qHTS and NCGC

Potency, inconclusive:
COc1ccc(NC(=O)c2cnn3c(C)cc(C)nc23)cc1OC 163 µM [activator, partial curve]
CC(=O)Nc1ccc(NC(=O)c2cnn3c(C)cc(C)nc23)cc1 81.9 µM [activator, partial curve]
COc1cc(NC(=O)c2cnn3c(C)cc(C)nc23)cc(OC)c1OC 41.1 µM [activator, partial curve]
Cc1cc(C)n2ncc(C(=O)NCC(C)C)c2n1 41.1 µM [activator, partial curve]
Cc1cc(C)n2ncc(C(=O)Nc3ccc(C(C)(C)C)cc3)c2n1 41.1 µM [activator, partial curve]
Cc1cc(C)n2ncc(C(=O)NC(C)C)c2n1 41.1 µM [activator, partial curve]
Cc1cc(C)n2ncc(C(=O)Nc3ccc(C#N)cc3)c2n1 41.1 µM [activator, partial curve]

Potency, inactive:
Cc1cc(C)n2ncc(C(=O)Nc3ccncc3)c2n1

Potency, active:
Cc1cc(C)n2ncc(C(=O)NCc3ccco3)c2n1 20.6 µM
Cc1cc(C)n2ncc(C(=O)NC3CCCCC3)c2n1 11.6 µM
